Data reported in the supplement of paper PMC9233669.
Variants at the background level are over-represented here.

How the values were obtained:
biotinyl-Trp-oxazolone = assay: self-aminoacylation, catalytic enhancement (BWO) (fold over background); higher = more active; k-Seq, kA / k0A0; sequences stand for … in GGGAAUGGAUCCACAUCUACGAAUUC…UUCACUGCAGACUUGACGAAGCUG
Outline: (§1)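 Working in 50 μL HEPES/NaCl/KCl/MgCl2/CaCl2 buffer with 5% acetonitrile at pH 6.9–7.0, mutagenized RNA pools (0.43 μM; 21-nt variable region) were reacted with 2–1250 μM of each biotinyl-aminoacyl-oxazolone for 90 minutes at room temperature. Streptavidin capture followed, with quantification by triplicate qPCR and Illumina sequencing. Catalytic enhancement is reported as median kA over the uncatalyzed rate, the low-activity peak of a bimodal Gaussian fit to the data.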

biotinyl-Leu-oxazolone = assay: self-aminoacylation, catalytic enhancement (BLO) (fold over background); higher = more active; k-Seq, kA / k0A0; sequences stand for … in GGGAAUGGAUCCACAUCUACGAAUUC…UUCACUGCAGACUUGACGAAGCUG
Outline: as §1

biotinyl-Val-oxazolone = assay: self-aminoacylation, catalytic enhancement (BVO) (fold over background); higher = more active; k-Seq, kA / k0A0; sequences stand for … in GGGAAUGGAUCCACAUCUACGAAUUC…UUCACUGCAGACUUGACGAAGCUG
Outline: as §1

biotinyl-Ile-oxazolone = assay: self-aminoacylation, catalytic enhancement (BIO) (fold over background); higher = more active; k-Seq, kA / k0A0; sequences stand for … in GGGAAUGGAUCCACAUCUACGAAUUC…UUCACUGCAGACUUGACGAAGCUG
Outline: as §1

biotinyl-Met-oxazolone = assay: self-aminoacylation, catalytic enhancement (BMO) (fold over background); higher = more active; k-Seq, kA / k0A0; sequences stand for … in GGGAAUGGAUCCACAUCUACGAAUUC…UUCACUGCAGACUUGACGAAGCUG
Outline: as §1

Sequence | self-aminoacylation (biotinyl-Trp-oxazolone) | self-aminoacylation (biotinyl-Leu-oxazolone) | self-aminoacylation (biotinyl-Val-oxazolone) | self-aminoacylation (biotinyl-Ile-oxazolone) | self-aminoacylation (biotinyl-Met-oxazolone)
AUCACCCUGGUCAUCGAGUGA [Fam2.1 aminoacylation ribozyme variant] | 28.4 | 27 | 11.3 | 10.6 | 27.8
AAUCACCUAGGUCAUCGUGUG [Fam2.2 aminoacylation ribozyme variant] | 1.41 | 1.5 | 1.06 | 1.22 | 1.44
AAGUUAGCUAAUUGUCGCAAG [Fam3.1 aminoacylation ribozyme variant] | 1.95 | 1.91 | 1.63 | 1.81 | 1.7
AAGUUGGCUAAUUGUCGCAAG [Fam3.1 aminoacylation ribozyme variant] | 2.71 | 2.41 | 1.71 | 1.99 | 1.93
AUUCACCUGGGUCAUAGGGUG [Fam2.2 aminoacylation ribozyme variant] | 1.48 | – | 1.5 | 1.53 | 1.92
AAGUAUACUAAUAGUCGCAAG [Fam3.1 aminoacylation ribozyme variant] | 1.44 | 1.56 | 1.18 | 1.4 | 1.52
AAGUAAGCUAAUAGUCGCAAG [Fam3.1 aminoacylation ribozyme variant] | 1.5 | 1.43 | 1.33 | 1.55 | 1.18
CCACUUCAAACAAUCGGUCUA [Fam1A.1 aminoacylation ribozyme variant] | 17.4 | 1.5 | 0.99 | 1.19 | 0.991
AAGUUUGGUAAGAGUCGCAAG [Fam3.1 aminoacylation ribozyme variant] | 1.31 | 1.43 | 1.3 | 1.58 | 1.3
AAGUUUGCGGAUAGUCGCAAG [Fam3.1 aminoacylation ribozyme variant] | 0.996 | 1.31 | 1.04 | 0.99 | 0.91
AUUCACCUAGGUCACCGGAUG [Fam2.2 aminoacylation ribozyme variant] | 1.84 | 1.38 | 1.57 | 1.49 | 1.05
AUUCACCUAGGUCACAGGGUG [Fam2.2 aminoacylation ribozyme variant] | 1.74 | 1.84 | 1.18 | 1.29 | 1.63
CCAAACUUCGAGCAAUCGGUC [Fam1B.1 aminoacylation ribozyme variant] | 1.34 | 1.45 | 1.55 | 1.47 | 1.47
CUACUUCAAACAAUCGGCCGG [Fam1A.1 aminoacylation ribozyme variant] | 1.8 | 1.02 | 1.53 | – | 1.45
AGUCACCUAGGUCAUCGCGUG [Fam2.2 aminoacylation ribozyme variant] | 14.3 | 18.3 | 9.1 | 8.4 | 14.4
CUUCAUCAAACAAUCGGUCUG [Fam1A.1 aminoacylation ribozyme variant] | 1.68 | 0.888 | 0.848 | 0.889 | 0.71
AUUCACCUAGGUCGUCGUGUG [Fam2.2 aminoacylation ribozyme variant] | 0.488 | 0.782 | 0.724 | 0.603 | 0.762
AUACACCUAGGUCGUCGGGUG [Fam2.2 aminoacylation ribozyme variant] | 1.83 | – | 1.69 | 1.71 | 1.92
AAGUUUGCUGACAGUCGCAAG [Fam3.1 aminoacylation ribozyme variant] | 1.45 | 1.12 | 1.11 | 1.03 | 1.32
AUUCACGUACGUCAUCGGGUG [Fam2.2 aminoacylation ribozyme variant] | 9.47 | 12.8 | 6.9 | 6.46 | 12.2
AAUACCCUGGUCAUCGAGUUA [Fam2.1 aminoacylation ribozyme variant] | 1.13 | 1.01 | 1.13 | 0.981 | 0.953
ACGUUAGCUAAUAGUCGCAAG [Fam3.1 aminoacylation ribozyme variant] | 0.7 | 1.65 | 1.1 | 1.75 | 1.89
AUUCACCUAGAUCAUCGGGUA [Fam2.2 aminoacylation ribozyme variant] | 1.58 | 1.46 | 1.84 | 1.58 | –
AUUAACCUAGGUCAUCGGCUG [Fam2.2 aminoacylation ribozyme variant] | 1.57 | 1.35 | 1.59 | 1.35 | 1.49

Sequence | self-aminoacylation (biotinyl-Trp-oxazolone) | self-aminoacylation (biotinyl-Leu-oxazolone) | self-aminoacylation (biotinyl-Val-oxazolone) | self-aminoacylation (biotinyl-Ile-oxazolone) | self-aminoacylation (biotinyl-Met-oxazolone)
AUUCCCAUAGGUCAUCGGGUG [Fam2.2 aminoacylation ribozyme variant] | 22 | 32.7 | 13.4 | 15.6 | 23.9
AAGUUGUCUAAUAGUCGCAAG [Fam3.1 aminoacylation ribozyme variant] | 1.78 | 1.44 | 1.49 | 1.99 | 1.39
AAGCUUGCUAAUGGUCGCAAG [Fam3.1 aminoacylation ribozyme variant] | 3.95 | 1.83 | 1.76 | 1.77 | 2.83
CUAUUUCAACCAAUCGGUCUG [Fam1A.1 aminoacylation ribozyme variant] | 1.62 | 0.692 | 0.676 | 0.731 | 0.672
AAGUUAGCUAAAAGUCGCAAG [Fam3.1 aminoacylation ribozyme variant] | 1.64 | – | 1.43 | 1.85 | 1.71
CUACUCCAAACAAACGGUCUG [Fam1A.1 aminoacylation ribozyme variant] | 0.918 | 0.71 | 0.981 | 0.816 | 0.531
AAGAUUGCUAAUAGUCGCAAC [Fam3.1 aminoacylation ribozyme variant] | 0.998 | 1.62 | 1.62 | 1.64 | 1.5
GUACUUCGAACAAUCGGUCUG [Fam1A.1 aminoacylation ribozyme variant] | 1.66 | 1.48 | 1.44 | 1.45 | 1.34
AAGUCUGCUAAGAGUCGCAAG [Fam3.1 aminoacylation ribozyme variant] | 1.92 | 0.828 | 0.861 | 0.836 | 1.21
CCACACUGCAAGCAAUAGGUC [Fam1B.1 aminoacylation ribozyme variant] | 0.601 | 0.915 | 0.907 | 0.905 | 0.777
AUGUUUGCUACUAGUCGCAAG [Fam3.1 aminoacylation ribozyme variant] | 1.15 | 1.61 | 1.18 | 1.36 | 1.2
CUAGUUCAAACAAUCGGUAUG [Fam1A.1 aminoacylation ribozyme variant] | 1.66 | 0.844 | 0.786 | 0.706 | 0.794
CCACACUUCAAUCAAUCUGUC [Fam1B.1 aminoacylation ribozyme variant] | 0.342 | 0.343 | 0.58 | 0.425 | 0.429
CCACACUUCAGGCAAUCCGUC [Fam1B.1 aminoacylation ribozyme variant] | 1.24 | 1.38 | 1.59 | 1.46 | 1.27
AUUCACCAAGGCCAUCGGGUG [Fam2.2 aminoacylation ribozyme variant] | 4.57 | 5.34 | 3.49 | 3.32 | 5.09
AAUUUUGCUAAUAGUCGCCAG [Fam3.1 aminoacylation ribozyme variant] | 1.82 | 1.52 | 1.66 | 1.78 | 1.47
AAGUUAGCUAAUAGUCGAAAG [Fam3.1 aminoacylation ribozyme variant] | 1.89 | 1.51 | 1.02 | 1.27 | 1.52
CCACACUUCAACCAAGCGGUC [Fam1B.1 aminoacylation ribozyme variant] | 0.613 | 0.761 | 1.08 | 0.95 | 0.914
AUCACCGUGGUCAUCGAGUGA [Fam2.1 aminoacylation ribozyme variant] | 7.75 | 6.15 | 4.01 | 3.99 | 7.05
ACUACCCUGGUCGUCGAGUGA [Fam2.1 aminoacylation ribozyme variant] | 0.701 | 1.95 | 1.19 | 1.17 | 1.49
AACUUUGCUAAUAGUUGCAAG [Fam3.1 aminoacylation ribozyme variant] | 1.43 | 1.58 | 1.84 | – | 1.88
CGACUUCAAACAAUCGGUCCG [Fam1A.1 aminoacylation ribozyme variant] | 4.64 | 1.08 | 0.948 | 1.03 | 1.19
AUUACCCUGGUCCUCGAGUGG [Fam2.1 aminoacylation ribozyme variant] | 1.63 | 1.42 | 1.23 | 1.07 | –
